Results as given in the supplement of paper PMC6078165.
Values are relative to the signal before dosing, not to a vehicle control; the signal also falls without drug.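 Labels refer to human fibroblasts, largely primary: uterine (C12385, HUF), lung (H6013), bone (Hs27A), adrenal (HADF), skin (WS1), plus mammary HMF and breast cancer-associated Hs343T. Cancer lines are basal-like or mesenchymal-like triple-negative breast cancer. The paper counts as hits responses shifting over 3x the replicate standard deviation. The tissue of the other fibroblasts is not given here.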

Test system: MDAMB436
Test: relative JC-1 red fluorescence (viability) vs pre-drug, coculture with fibroblast (fraction); higher = more viable cancer cells
Experimental: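 JC-1 labelled TNBC cells cocultured 1:1 (1,500 cells each) with CellTrace Violet stained primary or stromal fibroblasts in 384-well plates in FluoroBrite medium, treated with one of 42 anticancer drugs at 0.1, 1, 10 or 100 uM. JC-1 red fluorescence (mitochondrial integrity in cancer cells only) was read by plate reader every 8 h for 72 h. Values are normalised to each well's pre-drug value. The stock of one drug was tenfold lower, so its dose labels may be too high.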

CC(C)(C#N)c1cc(Cn2cncn2)cc(C(C)(C)C#N)c1 [Anastrozole]
relative JC-1 red fluorescence
Conditions	8 h	16 h	24 h	32 h	40 h	48 h	56 h	64 h	72 h
0.1 µM, coculture fibroblast: C12385	0.758	0.675	0.64	0.548	0.501	0.473	0.454	0.439	0.431
0.1 µM, coculture fibroblast: H6013	0.768	0.732	0.717	0.706	0.695	0.719	0.682	0.667	0.635
0.1 µM, coculture fibroblast: H6019	0.7302	0.6761	0.638	0.5513	0.507	0.471	0.434	0.401	0.371
0.1 µM, coculture fibroblast: H6076	0.707	0.643	0.609	0.578	0.562	0.539	0.548	0.538	0.531
0.1 µM, coculture fibroblast: H6231	0.71214	0.635	0.6529	0.5825	0.5736	0.547	0.545	0.527	0.508
0.1 µM, coculture fibroblast: HADF	0.806	0.7328	0.709	0.676	0.66	0.679	0.626	0.62	0.584
0.1 µM, coculture fibroblast: HCFa	0.758	0.715	0.685	0.646	0.617	0.622	0.558	0.541	0.49
0.1 µM, coculture fibroblast: HCPF	0.7667	0.695	0.669	0.6	0.5845	0.551	0.528	0.51	0.493
0.1 µM, coculture fibroblast: HHSteC	0.807	0.814	0.793	0.769	0.757	0.775	0.708	0.685	0.627
0.1 µM, coculture fibroblast: HMF	0.704	0.6379	0.6057	0.5605	0.547	0.509	0.516	0.496	0.495
0.1 µM, coculture fibroblast: HPFa	0.882	0.81	0.757	0.695	0.663	0.656	0.577	0.542	0.475
0.1 µM, coculture fibroblast: HUF	0.83	0.694	0.659	0.584	0.535	0.509	0.484	0.475	0.468
0.1 µM, coculture fibroblast: Hs5	0.746	0.696	0.681	0.634	0.616	0.579	0.586	0.55	0.537
0.1 µM, coculture fibroblast: Hs27A	0.88	0.841	0.84	0.841	0.836	0.775	0.782	0.798	0.729
0.1 µM, coculture fibroblast: Hs343T	0.754	0.669	0.61	0.553	0.522	0.49	0.478	0.46	0.45
0.1 µM, coculture fibroblast: WS1	0.7461	0.66	0.611	0.515	0.473	0.436	0.411	0.381	0.37
1 µM, coculture fibroblast: C12385	0.812	0.704	0.664	0.581	0.529	0.5	0.479	0.461	0.452
1 µM, coculture fibroblast: H6013	0.872	0.792	0.771	0.771	0.76	0.778	0.739	0.724	0.681
1 µM, coculture fibroblast: H6019	0.7454	0.63266	0.602	0.528	0.485	0.471	0.436	0.406	0.377
1 µM, coculture fibroblast: H6076	0.782	0.653	0.645	0.616	0.595	0.581	0.599	0.61	0.606
1 µM, coculture fibroblast: H6231	0.7847	0.7	0.674	0.634	0.602	0.574	0.545	0.514	0.487
1 µM, coculture fibroblast: HADF	0.826	0.746	0.694	0.655	0.627	0.631	0.579	0.569	0.532
1 µM, coculture fibroblast: HCFa	0.7872	0.71	0.665	0.642	0.612	0.628	0.564	0.547	0.493
1 µM, coculture fibroblast: HCPF	0.806	0.702	0.648	0.6023	0.574	0.537	0.507	0.487	0.462
1 µM, coculture fibroblast: HHSteC	0.912	0.818	0.779	0.77	0.759	0.751	0.706	0.673	0.611
1 µM, coculture fibroblast: HMF	0.757	0.645	0.638	0.611	0.592	0.564	0.561	0.559	0.545
1 µM, coculture fibroblast: HPFa	0.89	0.829	0.802	0.767	0.752	0.757	0.676	0.645	0.561
1 µM, coculture fibroblast: HUF	0.821	0.716	0.679	0.608	0.552	0.522	0.497	0.475	0.461
1 µM, coculture fibroblast: Hs5	0.785	0.68795	0.6744	0.6256	0.617	0.578	0.585	0.568	0.554
1 µM, coculture fibroblast: Hs27A	0.76494	0.675	0.622	0.599	0.562	0.608	0.525	0.501	0.431
1 µM, coculture fibroblast: Hs343T	0.751	0.615	0.57	0.5296	0.5	0.468	0.4591	0.4493	0.4436
1 µM, coculture fibroblast: WS1	0.8008	0.694	0.6409	0.5663	0.5209	0.5	0.474	0.447	0.434
10 µM, coculture fibroblast: C12385	0.8274	0.696	0.668	0.579	0.527	0.491	0.47	0.44	0.428
10 µM, coculture fibroblast: H6013	0.838	0.74	0.742	0.735	0.721	0.755	0.721	0.71	0.6691
10 µM, coculture fibroblast: H6019	0.742	0.6892	0.6508	0.564	0.51	0.484	0.443	0.409	0.382
10 µM, coculture fibroblast: H6076	0.665	0.594	0.588	0.558	0.546	0.531	0.543	0.534	0.529
10 µM, coculture fibroblast: H6231	0.728	0.64	0.596	0.527	0.506	0.475	0.46	0.436	0.422
10 µM, coculture fibroblast: HADF	0.865	0.78	0.781	0.755	0.743	0.766	0.704	0.691	0.6466
10 µM, coculture fibroblast: HCFa	0.798	0.75	0.732	0.706	0.681	0.707	0.641	0.632	0.58
10 µM, coculture fibroblast: HCPF	0.757	0.618	0.5962	0.51916	0.485	0.4478	0.41826	0.395	0.387
10 µM, coculture fibroblast: HHSteC	0.828	0.771	0.753	0.719	0.704	0.726	0.657	0.637	0.589
10 µM, coculture fibroblast: HMF	0.748	0.628	0.586	0.533	0.512	0.471	0.46	0.443	0.443
10 µM, coculture fibroblast: HPFa	0.882	0.816	0.794	0.767	0.743	0.753	0.663	0.634	0.558
10 µM, coculture fibroblast: HUF	0.844	0.72	0.683	0.601	0.545	0.512	0.4888	0.4685	0.454
10 µM, coculture fibroblast: Hs5	0.677	0.625	0.6178	0.5605	0.551	0.503	0.514	0.48	0.465
10 µM, coculture fibroblast: Hs27A	0.862	0.799	0.789	0.781	0.747	0.811	0.705	0.69	0.602
10 µM, coculture fibroblast: Hs343T	0.699	0.615	0.57	0.513	0.478	0.438	0.42	0.407	0.4
10 µM, coculture fibroblast: WS1	0.803	0.696	0.665	0.58	0.542	0.512	0.476	0.433	0.413
100 µM, coculture fibroblast: C12385	0.835	0.744	0.754	0.685	0.653	0.631	0.605	0.585	0.577
100 µM, coculture fibroblast: H6013	0.8765	0.797	0.809	0.81	0.793	0.815	0.773	0.753	0.705
100 µM, coculture fibroblast: H6019	0.791	0.716	0.7137	0.659	0.6353	0.62402	0.5849	0.551	0.52
100 µM, coculture fibroblast: H6076	0.788	0.6729	0.6312	0.595	0.5727	0.547	0.54	0.536	0.529
100 µM, coculture fibroblast: H6231	0.8	0.706	0.663	0.626	0.587	0.545	0.53	0.513	0.491
100 µM, coculture fibroblast: HADF	0.853	0.792	0.786	0.758	0.729	0.733	0.6686	0.6501	0.6025
100 µM, coculture fibroblast: HCFa	0.84	0.781	0.775	0.748	0.715	0.724	0.649	0.631	0.581
100 µM, coculture fibroblast: HCPF	0.789	0.724	0.627	0.612	0.581	0.542	0.512	0.494	0.471
100 µM, coculture fibroblast: HHSteC	0.8824	0.828	0.801	0.777	0.762	0.772	0.708	0.681	0.627
100 µM, coculture fibroblast: HMF	0.8042	0.717	0.613	0.6013	0.5659	0.534	0.515	0.498	0.482
100 µM, coculture fibroblast: HPFa	0.935	0.876	0.848	0.801	0.769	0.757	0.671	0.618	0.537
100 µM, coculture fibroblast: HUF	0.8744	0.7869	0.753	0.688	0.632	0.5965	0.5545	0.5257	0.512
100 µM, coculture fibroblast: Hs5	0.84429	0.759	0.715	0.663	0.644	0.595	0.59	0.56	0.534
100 µM, coculture fibroblast: Hs27A	0.834	0.78	0.758	0.735	0.709	0.736	0.652	0.622	0.546
100 µM, coculture fibroblast: Hs343T	0.806	0.708	0.627	0.623	0.582	0.556	0.535	0.522	0.517
100 µM, coculture fibroblast: WS1	0.832	0.739	0.74	0.679	0.632	0.624	0.599	0.567	0.548
